Laboratory results taken from publication PMC8355374.
Results are given in words; binding and its absence hold for the method and conditions named. In cells and extracts the contact can be indirect. Some results given as binding are weak or reduced against the parent protein; the word gives no strength.

Chains of the proteins cited; added tags and fusions are not shown. Residues count along the entry.
UniProt P16671: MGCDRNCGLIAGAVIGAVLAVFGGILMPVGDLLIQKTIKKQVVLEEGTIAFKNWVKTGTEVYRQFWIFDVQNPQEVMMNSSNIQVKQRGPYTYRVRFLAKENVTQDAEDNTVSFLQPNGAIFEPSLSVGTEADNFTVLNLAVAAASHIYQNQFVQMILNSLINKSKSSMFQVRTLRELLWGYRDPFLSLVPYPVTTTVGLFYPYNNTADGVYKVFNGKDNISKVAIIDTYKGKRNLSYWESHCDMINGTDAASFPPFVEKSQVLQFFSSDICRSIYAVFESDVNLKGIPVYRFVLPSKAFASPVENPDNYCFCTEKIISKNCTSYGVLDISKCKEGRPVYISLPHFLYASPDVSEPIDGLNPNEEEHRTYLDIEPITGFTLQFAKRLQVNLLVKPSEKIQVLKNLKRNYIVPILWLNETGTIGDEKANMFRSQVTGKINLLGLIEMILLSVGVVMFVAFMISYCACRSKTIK
UniProt P07996, residues 19-1170: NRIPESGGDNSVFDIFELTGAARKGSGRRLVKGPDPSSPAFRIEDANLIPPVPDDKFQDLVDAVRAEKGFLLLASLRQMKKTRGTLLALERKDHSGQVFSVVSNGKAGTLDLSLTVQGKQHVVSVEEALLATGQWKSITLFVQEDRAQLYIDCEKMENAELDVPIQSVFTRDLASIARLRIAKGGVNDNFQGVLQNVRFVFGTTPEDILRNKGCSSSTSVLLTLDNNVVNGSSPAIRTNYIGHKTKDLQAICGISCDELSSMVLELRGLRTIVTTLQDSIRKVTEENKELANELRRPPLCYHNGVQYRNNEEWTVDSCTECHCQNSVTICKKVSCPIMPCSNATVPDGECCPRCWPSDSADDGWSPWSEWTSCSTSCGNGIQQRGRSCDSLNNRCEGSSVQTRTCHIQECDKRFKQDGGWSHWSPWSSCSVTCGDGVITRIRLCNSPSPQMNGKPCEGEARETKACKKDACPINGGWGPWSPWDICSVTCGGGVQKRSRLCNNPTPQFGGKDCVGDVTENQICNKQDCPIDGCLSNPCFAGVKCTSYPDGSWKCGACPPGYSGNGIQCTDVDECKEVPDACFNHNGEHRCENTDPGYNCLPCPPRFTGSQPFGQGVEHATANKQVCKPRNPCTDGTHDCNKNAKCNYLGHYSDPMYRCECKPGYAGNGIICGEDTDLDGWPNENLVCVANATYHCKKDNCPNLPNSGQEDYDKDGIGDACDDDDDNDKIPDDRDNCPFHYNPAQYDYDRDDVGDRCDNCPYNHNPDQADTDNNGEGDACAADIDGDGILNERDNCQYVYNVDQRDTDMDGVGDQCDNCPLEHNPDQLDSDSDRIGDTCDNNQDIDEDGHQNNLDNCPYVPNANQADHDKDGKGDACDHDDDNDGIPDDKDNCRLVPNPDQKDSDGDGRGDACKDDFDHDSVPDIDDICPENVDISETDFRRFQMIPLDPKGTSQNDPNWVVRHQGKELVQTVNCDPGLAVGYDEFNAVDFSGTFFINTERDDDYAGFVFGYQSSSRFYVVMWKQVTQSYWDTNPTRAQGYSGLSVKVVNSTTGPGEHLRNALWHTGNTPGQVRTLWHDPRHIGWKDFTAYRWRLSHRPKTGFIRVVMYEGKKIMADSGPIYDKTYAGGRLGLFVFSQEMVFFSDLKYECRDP

Biological target: CD36 (human (endogenous in IHH)) (UniProt P16671)
Assay: co-IP; IHH hepatocytes treated with recombinant TSP1 in serum-free DMEM for 24 h, then lysed; immunoprecipitation with anti-CD36 antibody (control: IgG), overnight at 4 °C; bound proteins analysed by Western blotting; only the binder purified

thrombospondin 1 (TSP1), recombinant (from UniProt P07996 19-1170) (ligand)
binding: binds
